Laboratory results: US4331661A (The Salk Institute for Biological Studies, priority 1980, dated 1982)
HELM strings list residues between dots; [ac] is acetyl, [am] amide, other brackets name non-standard units.

Experiment: general procedure: Boc solid-phase peptide synthesis; chloromethylated resin, methylbenzhydrylamine (MBHA) resin or benzhydrylamine (BHA) resin
Details: whole synthesis, scale of the general procedure 5 grams of resin

**Q.** For “PEPTIDE1{[ac].H.W.A.V.G.H.L.M.[am]}$$$$V2.0”, which “final purity (method not given)” value is on record?
**A.** Its value is “greater than 98%”.
